Test results as given in publication doi:10.1101/2021.10.27.466083.
Results are given in words; binding and its absence hold for the method and conditions named. Binding seen in cells or lysates may run through a third protein. Some results given as binding are weak or reduced against the parent protein; the word gives no strength.

Chains of the proteins cited; added tags and fusions are not shown.
UniProt P54274: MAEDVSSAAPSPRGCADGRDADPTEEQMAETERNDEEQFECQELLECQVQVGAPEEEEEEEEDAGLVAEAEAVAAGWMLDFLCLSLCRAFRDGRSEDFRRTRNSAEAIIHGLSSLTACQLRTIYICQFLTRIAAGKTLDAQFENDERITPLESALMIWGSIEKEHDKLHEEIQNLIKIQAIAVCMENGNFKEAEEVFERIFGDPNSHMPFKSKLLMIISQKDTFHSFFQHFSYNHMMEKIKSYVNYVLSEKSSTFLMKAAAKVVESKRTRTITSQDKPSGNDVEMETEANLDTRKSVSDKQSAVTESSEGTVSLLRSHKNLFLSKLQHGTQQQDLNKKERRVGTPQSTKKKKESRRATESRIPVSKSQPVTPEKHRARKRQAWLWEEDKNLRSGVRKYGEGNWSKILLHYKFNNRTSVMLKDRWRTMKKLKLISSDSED
UniProt P09874: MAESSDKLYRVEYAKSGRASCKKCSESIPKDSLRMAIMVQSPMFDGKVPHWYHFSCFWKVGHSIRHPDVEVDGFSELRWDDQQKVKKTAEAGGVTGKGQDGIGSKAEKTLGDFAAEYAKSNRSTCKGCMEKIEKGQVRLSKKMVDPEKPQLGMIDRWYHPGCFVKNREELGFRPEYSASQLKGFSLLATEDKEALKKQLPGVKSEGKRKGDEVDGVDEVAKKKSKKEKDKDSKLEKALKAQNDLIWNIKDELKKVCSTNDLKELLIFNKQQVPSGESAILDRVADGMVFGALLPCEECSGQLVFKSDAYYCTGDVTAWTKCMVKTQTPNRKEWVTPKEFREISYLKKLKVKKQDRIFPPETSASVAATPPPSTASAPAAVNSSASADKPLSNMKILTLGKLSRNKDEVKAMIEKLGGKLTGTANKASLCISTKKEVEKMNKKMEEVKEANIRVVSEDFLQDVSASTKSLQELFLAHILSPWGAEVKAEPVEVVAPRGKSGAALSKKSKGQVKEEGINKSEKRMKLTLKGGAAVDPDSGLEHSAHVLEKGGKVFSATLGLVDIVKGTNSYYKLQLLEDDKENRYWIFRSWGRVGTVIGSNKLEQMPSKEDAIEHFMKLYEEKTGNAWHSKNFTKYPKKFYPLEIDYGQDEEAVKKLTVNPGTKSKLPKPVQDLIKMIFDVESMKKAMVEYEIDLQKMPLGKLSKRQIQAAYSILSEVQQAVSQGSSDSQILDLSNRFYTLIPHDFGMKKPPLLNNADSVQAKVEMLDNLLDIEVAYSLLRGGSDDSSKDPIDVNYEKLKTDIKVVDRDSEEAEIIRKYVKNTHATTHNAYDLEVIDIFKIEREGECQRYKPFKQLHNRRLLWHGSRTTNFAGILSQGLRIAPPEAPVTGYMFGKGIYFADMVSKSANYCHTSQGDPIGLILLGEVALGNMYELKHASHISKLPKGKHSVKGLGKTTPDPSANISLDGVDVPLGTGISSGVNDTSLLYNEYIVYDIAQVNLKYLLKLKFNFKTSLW

Key:
[1] = target: Telomere Repeat Binding Factor 1 (TRF1) (human (endogenous in HeLa)) (UniProt P54274); assay: proximity ligation
[2] = target: Telomere Repeat Binding Factor 1 (TRF1) (human (endogenous in HeLa)) (UniProt P54274); assay: co-IP

binding [1]: binds
binding [2]: binds
Substance: Poly (ADP-ribose) polymerase 1 (PARP1) (from UniProt P09874 1-1014) (enzyme)
